These results are taken from PubChem BioAssay AID1347423 (Functional Genomics Laboratory (NCATS/FGL), 2020).

The campaign covered roughly 52,000 sequences. About 210 (0.4%) were called active.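 Rule for the calls: active = gene whose silencing raises cell survival under the drug, median off-target-corrected z-score across its silencing RNAs 2 or more; inactive = the rest.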 The list shows a part of the results.

This experiment in a line: Resistance to Poly (ADP-Ribose) Polymerase inhibitor: Gene Identification via Genome-wide siRNA Screen. The note with it: mouse BRCA2 R2336H ES cells, olaparib, CellTiter-Glo viability; hits give high values. A digest of the protocol:
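Genome-wide siRNA screen (3 siRNAs/gene, 20 nM) in mouse ES cells carrying hypomorphic BRCA2 R2336H; olaparib 500 nM added 48 h post-transfection, CellTiter-Glo viability 72 h later. Normalized to plate-median negative control; MAD z-scores, gene median, seed-adjusted.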
As for “GGAAGAAGAUGGUUCCGAATT against D1Ertd161e”, the z-score was inactive: -1.91.

Consider GGAAACAUGAUCAUUUUGATT against Olfr1179, for which the z-score is inactive: 0.446.

Turning to CGGGAAAGCCAAUACCAUGTT against MGC51670, the z-score was inactive: 0.672.

With GGUCCUGAUGAAGAACGUGTT against Polr3e, the z-score was inactive: -0.39.

With GGAUUCUGAACACUUUUUCTT against Pot1, the z-score is inactive: 1.25.

Take GGUAUCUGUGUGACUUCACTT against Pgpep1: the z-score was inactive: 1.8.

Regarding GCCUACAAUCUGAAUGAAGTT against Ctla2a, the z-score was inactive: 0.00451.

“GGAGAAUUAGAAUAUGCUATT against 1110049F12Rik”: the z-score is inactive: 1.08.

In the case of GGCCUUUAAAACUCCUGAATT against Lzic, the z-score is inactive: -2.6.

Regarding GGACAUGAAGAUAGCAAUUTT against Olfr424, the z-score was inactive: -0.206.

As for GGGACCUUGGAUUGUGUUGTT against Pla2g10, the z-score was inactive: 0.00663.

In the case of GGUGUACCAGCAUAGCUGUTT against Hps5, the z-score was inactive: 0.799.

As to “GGACUGGUCAGAGAUGGAUTT against A930025D01Rik”, the z-score was inactive: 1.16.

Consider GGUUAUUCUCAUUUCGGAUTT against Phospho1, for which the z-score is inactive: 0.87.

Take GGAUUUGAGAGAUUCAGUUTT against Siglec10: the z-score was inactive: 0.639.

GCACAACAAGACUUUUCUCTT against Epm2a: the z-score was inactive: 0.573.

With “GCUAAAUCCUUGACACCCATT against 4930430E16Rik”, the z-score was inactive: 2.92.

With GGUAGAAGAGAACUGGACATT against Oas1a, the z-score was inactive: -2.37.

Turning to GGACAAGUCCACAGUGUUUTT against Lss, the z-score was inactive: -0.471.

Turning to GCAGUCCUCCAUUAAGGUATT against Nr4a2, the z-score was inactive: -0.444.

For the sequence “GCAUGCGUGUCCAUCACAUTT against A730036I17Rik”, the z-score is inactive: -0.233.

Consider CCCUGUUAAGUCAACUAUGTT against Actl7a, for which the z-score is inactive: 0.219.

Consider GGUUUGUCAACAAGUGUCATT against Dicer1, for which the z-score is inactive: -0.082.

On to GCCACGUUCAAACAGUACCTT against Slc1a7, for which the z-score was inactive: 0.853.

Take “GCUCCAGUGAUUAUUUAUATT against C030018L16Rik”: the z-score is inactive: 0.243.

As to GGCUCCAAUAAAGUGCCUUTT against Elf3, the z-score was inactive: -0.0607.

Consider GGAACAGAGAUAUGAAACATT against Olfr738, for which the z-score was inactive: -0.46.

For the sequence GUCCCUGAACCUGUGGUAUTT against Emp3, the z-score is inactive: 0.684.

On to CCAAGUUUAACAUCCAGGGTT against Pfkm, for which the z-score is inactive: 1.16.

In the case of “CGGCUAUGUCCGUCAUUGGTT against 2310003F16Rik”, the z-score is inactive: -1.57.

GGGAUUGGCUACGACUUCATT against Cbs: the z-score is inactive: -2.04.

As to CCUAACUGCUAAAUGGUGUTT against Irf1, the z-score was inactive: 0.613.

With CCAGUUCGAUGUGGUAAUATT against Siat9, the z-score was inactive: 1.16.

For the sequence CCUUAUCUUGGUAUACAAUTT against Eif3s10, the z-score was inactive: -1.33.

For “GGUUUAAUGCGACAUAUUGTT against 1700108E19Rik”, the z-score is inactive: 0.579.

Take GGAAAUUUGUGAAAGGACATT against Gata4: the z-score is inactive: -0.734.

Take GGAAAAAAGAAAUCAGGAUTT against Luc7l: the z-score is inactive: -0.126.

Turning to “GCGCAGGAUACCCUAUCUATT against 4930542C12Rik”, the z-score is inactive: -1.05.

Turning to GGACGUGAACCAGGAUGUUTT against Cblc, the z-score is inactive: 1.44.

Take GGGUGACUAUGAGAAGGAGTT against Lmx1b: the z-score is inactive: -1.15.

Take GGCUGGCAAUGUGAGCAGUTT against Gbx1: the z-score was inactive: -0.22.

With GGAGAUAUUUUGCAUACAGTT against V1rc3, the z-score was inactive: 0.46.

As for GGAGGCAGCCAAAGAAAACTT against Bmp8a, the z-score is inactive: -0.369.

Take GGCAAAUAGUGACCACACGTT against Dmp1: the z-score was inactive: -2.14.

In the case of GGAACUCCUGACAAAGAUGTT against AW049829, the z-score is inactive: -0.165.

For GGGACCAAGAAGGAUAACUTT against Flrt1, the z-score was inactive: -0.951.

Take GCUACGCAAUAAGACCACATT against Lamc3: the z-score is inactive: -0.00194.

As to GGACUUCCAUUCUUUUUCATT against Tieg3, the z-score was inactive: -0.0534.

With GCUGGCCUUAUGUAAAUCUTT against Galc, the z-score was inactive: -0.888.

Consider GCCACGACCUGGAACAACUTT against Taf6l, for which the z-score is inactive: -0.423.

Regarding GGAAGAUGAUGAUCAAACUTT against Zbed4, the z-score was inactive: -0.726.

For the sequence “GCAUCAACUGCUGGUCUAGTT against 1700013B16Rik”, the z-score is inactive: -2.47.

Turning to “CGCACAGUGGACAUUUGAGTT against 4833432M17Rik”, the z-score was inactive: -1.3.

Consider GGACCUAUAAGAACAGUGATT against Psmf1, for which the z-score is inactive: -0.279.

Consider CCAUUGAAAAACUGGACAGTT against Olfr1463, for which the z-score was inactive: -0.419.

Regarding GGAGAUUGAGGAGGAGGCUTT against Incenp, the z-score was inactive: -1.07.

For “GGAAUCAUUUGAAUCAGGATT against 1200016B10Rik”, the z-score was inactive: -0.765.

As for GGCCACAUGAGAUUGCUUUTT against Tnfrsf13c, the z-score was inactive: -1.16.

On to GGACAAGAAGUGUGUAUACTT against Mrc2, for which the z-score is inactive: -1.37.

Turning to GCGCGAGUUAUUGAUUCCGTT against Wee1, the z-score was inactive: -0.687.

As to “GGAUUUUAACAAAUUCUGCTT against 2410141M05Rik”, the z-score was inactive: 1.26.

Consider CGAAAAAAAGUCCAUAAAGTT against Mki67ip, for which the z-score is inactive: -0.091.

For the sequence GGUAUGACACAGUCAUACUTT against V1rc17, the z-score was inactive: 0.784.

As to “GGUACUUUAUAGGAACAGUTT against 9830132G07Rik”, the z-score is inactive: -0.596.

With CCAUUGAAAUUUCCAUCUGTT against Baalc, the z-score is inactive: -0.132.

Take GGAAAGCUUCAAAAUGGUGTT against Foxj2: the z-score is inactive: 0.338.
